Results: publication PMC8278236
Results are given in words; binding and its absence hold for the method and conditions named. Binding seen in cells or lysates may run through a third protein. Some results given as binding are weak or reduced against the parent protein; the word gives no strength. Where a sequence is shown, tags or fusion partners need not be part of it.

Target: T1, His-tagged NlpI(Δss) (E. coli) (UniProt P0AFB1)
T1 sequence: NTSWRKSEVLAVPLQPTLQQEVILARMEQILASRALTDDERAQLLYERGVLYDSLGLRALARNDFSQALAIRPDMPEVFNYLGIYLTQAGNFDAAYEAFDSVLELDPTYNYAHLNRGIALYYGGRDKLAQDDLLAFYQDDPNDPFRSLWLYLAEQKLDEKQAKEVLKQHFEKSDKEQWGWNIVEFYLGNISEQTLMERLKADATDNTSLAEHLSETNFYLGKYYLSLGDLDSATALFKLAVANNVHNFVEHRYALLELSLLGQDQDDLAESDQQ
Assay: pull-down; purified His-NlpI(Δss) and the supernatant of cells overexpressing a non-His-tagged PG endopeptidase mixed on TALON metal affinity resin, 4°C, 25 min; buffer A (50 mM Tris-HCl pH 8.0, 200 mM NaCl); three washes; SDS-PAGE with Coomassie staining; control resin with the supernatant only; only the target purified

binding: binds
B1: Non-His-tagged MepS (enzyme, UniProt P0AFV4 27-188)
chain: CSANNTAKNMHPETRAVGSETSSLQASQDEFENLVRNVDVKSRIMDQYADWKGVRYRLGGSTKKGIDCSGFVQRTFREQFGLELPRSTYEQQEMGKSVSRSNLRTGDLVLFRAGSTGRHVGIYIGNNQFVHASTSSGVIISSMNEPYWKKRYNEARRVLSRS
